Measured values published in article PMC11178545, “Alkynyl nicotinamides show antileukemic activity in drug-resistant acute myeloid leukemia” (The Journal of Clinical Investigation, 2024).

Assays:
[1] = system: BaF3 cells expressing FLT3ITD; assay: BaF3 proliferation, colorimetric WST-1 assay; type: cell-based, murine
[2] = system: BaF3 cells expressing FLT3ITD-D835Y; assay: BaF3 proliferation, colorimetric WST-1 assay
[3] = system: BaF3 cells transduced with Flt3ITD/ITD, with IL3; assay: BaF3 Flt3ITD/ITD proliferation in the presence of IL3 (Supplementary Figure 3A); conditions: replicates

IC50 ([1]; Mus musculus, BaF3 FLT3ITD, read-out: IC50, growth inhibition): 0.00963 µM
IC50 ([2]; Mus musculus, BaF3, read-out: IC50, growth inhibition): 0.0107 µM
Structure (SMILES): CO[C@@H]1[C@H](N(C)C(=O)c2ccccc2)C[C@H]2O[C@]1(C)n1c3ccccc3c3c4c(c5c6ccccc6n2c5c31)C(=O)NC4 [Midostaurin]
proliferation, colorimetric assay ([1]; BaF3/FLT3 ITD, concentration 0.016 (unit not given), 48 hours, replicates, listed as Midostuarin): 105.017
proliferation, colorimetric assay ([2]; BaF3/FLT3 ITD-D835Y, concentration 0.08 (unit not given), 48 hours, replicates, listed as Midostuarin): 105.403
Supplementary Figure 3A - BaF3-ITD+IL3 proliferation ([3]; concentration 0.08 (unit not given)): 107.388
Supplementary Figure 3A - BaF3-ITD+IL3 proliferation ([3]; concentration 250 (unit not given), listed as Midostuarin): 104.916
